Laboratory results reported in the supplement of paper PMC10849652.
This is one part of the list.

Amino acid sequences for entries named in this document (tags omitted). A change or cut given only in a name is not applied to a line headed by its entry.
UniProt Q9H000: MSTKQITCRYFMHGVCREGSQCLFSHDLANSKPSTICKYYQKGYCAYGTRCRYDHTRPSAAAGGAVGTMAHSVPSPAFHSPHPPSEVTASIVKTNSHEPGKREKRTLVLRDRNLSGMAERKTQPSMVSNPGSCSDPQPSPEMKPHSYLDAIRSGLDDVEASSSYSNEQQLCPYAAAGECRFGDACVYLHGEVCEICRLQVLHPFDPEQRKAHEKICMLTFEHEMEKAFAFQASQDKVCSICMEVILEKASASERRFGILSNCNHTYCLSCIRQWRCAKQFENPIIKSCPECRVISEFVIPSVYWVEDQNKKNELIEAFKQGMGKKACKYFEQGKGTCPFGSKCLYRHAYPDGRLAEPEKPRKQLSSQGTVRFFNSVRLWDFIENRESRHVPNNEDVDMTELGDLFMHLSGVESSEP
UniProt P14174: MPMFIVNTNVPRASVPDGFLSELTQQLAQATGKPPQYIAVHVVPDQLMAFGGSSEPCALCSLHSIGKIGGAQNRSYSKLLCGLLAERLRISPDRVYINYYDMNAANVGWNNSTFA
UniProt Q5TGZ0: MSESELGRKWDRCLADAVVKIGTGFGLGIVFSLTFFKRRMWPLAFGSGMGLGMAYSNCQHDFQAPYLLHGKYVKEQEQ
UniProt P25325: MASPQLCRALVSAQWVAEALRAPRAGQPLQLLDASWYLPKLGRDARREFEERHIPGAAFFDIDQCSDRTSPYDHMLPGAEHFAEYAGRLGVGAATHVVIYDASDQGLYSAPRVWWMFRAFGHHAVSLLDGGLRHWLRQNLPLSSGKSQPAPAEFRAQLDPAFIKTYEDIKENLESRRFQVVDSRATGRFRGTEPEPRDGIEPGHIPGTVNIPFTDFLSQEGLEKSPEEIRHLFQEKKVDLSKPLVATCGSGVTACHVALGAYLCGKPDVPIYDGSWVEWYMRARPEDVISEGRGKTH
UniProt Q9BQP7: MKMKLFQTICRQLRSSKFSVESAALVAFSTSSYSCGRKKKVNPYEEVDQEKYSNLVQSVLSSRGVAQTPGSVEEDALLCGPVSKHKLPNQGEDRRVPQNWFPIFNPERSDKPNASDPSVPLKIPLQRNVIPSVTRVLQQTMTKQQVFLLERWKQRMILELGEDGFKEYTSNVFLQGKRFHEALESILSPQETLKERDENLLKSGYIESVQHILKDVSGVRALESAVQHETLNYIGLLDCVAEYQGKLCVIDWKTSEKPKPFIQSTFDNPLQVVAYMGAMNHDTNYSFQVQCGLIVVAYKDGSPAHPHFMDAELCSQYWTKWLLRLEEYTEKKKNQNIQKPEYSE
UniProt Q9HAP2: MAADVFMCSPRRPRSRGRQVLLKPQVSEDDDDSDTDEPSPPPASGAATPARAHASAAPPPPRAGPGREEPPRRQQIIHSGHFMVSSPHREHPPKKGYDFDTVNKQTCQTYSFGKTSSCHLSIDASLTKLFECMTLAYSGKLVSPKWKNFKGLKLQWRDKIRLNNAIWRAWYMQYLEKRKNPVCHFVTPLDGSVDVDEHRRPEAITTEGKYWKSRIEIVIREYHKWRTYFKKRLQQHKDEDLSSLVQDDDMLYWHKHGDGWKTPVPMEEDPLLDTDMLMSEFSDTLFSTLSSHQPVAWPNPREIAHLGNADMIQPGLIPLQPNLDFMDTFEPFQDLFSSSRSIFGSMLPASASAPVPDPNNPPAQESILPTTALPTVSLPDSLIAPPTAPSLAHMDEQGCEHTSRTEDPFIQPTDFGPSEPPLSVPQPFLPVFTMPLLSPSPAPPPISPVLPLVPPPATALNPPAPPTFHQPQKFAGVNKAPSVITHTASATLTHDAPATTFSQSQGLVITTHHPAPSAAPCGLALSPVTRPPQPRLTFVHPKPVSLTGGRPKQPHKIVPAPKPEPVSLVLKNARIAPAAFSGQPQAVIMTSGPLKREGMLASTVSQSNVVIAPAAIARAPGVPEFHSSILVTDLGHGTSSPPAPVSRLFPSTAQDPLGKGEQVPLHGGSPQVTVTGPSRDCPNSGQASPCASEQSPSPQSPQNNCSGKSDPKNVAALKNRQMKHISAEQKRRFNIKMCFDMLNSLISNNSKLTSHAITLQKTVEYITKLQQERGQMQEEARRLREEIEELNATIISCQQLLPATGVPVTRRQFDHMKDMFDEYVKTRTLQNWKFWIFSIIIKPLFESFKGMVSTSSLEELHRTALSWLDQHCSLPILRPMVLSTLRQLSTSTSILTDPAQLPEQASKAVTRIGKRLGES
UniProt Q9NZW5: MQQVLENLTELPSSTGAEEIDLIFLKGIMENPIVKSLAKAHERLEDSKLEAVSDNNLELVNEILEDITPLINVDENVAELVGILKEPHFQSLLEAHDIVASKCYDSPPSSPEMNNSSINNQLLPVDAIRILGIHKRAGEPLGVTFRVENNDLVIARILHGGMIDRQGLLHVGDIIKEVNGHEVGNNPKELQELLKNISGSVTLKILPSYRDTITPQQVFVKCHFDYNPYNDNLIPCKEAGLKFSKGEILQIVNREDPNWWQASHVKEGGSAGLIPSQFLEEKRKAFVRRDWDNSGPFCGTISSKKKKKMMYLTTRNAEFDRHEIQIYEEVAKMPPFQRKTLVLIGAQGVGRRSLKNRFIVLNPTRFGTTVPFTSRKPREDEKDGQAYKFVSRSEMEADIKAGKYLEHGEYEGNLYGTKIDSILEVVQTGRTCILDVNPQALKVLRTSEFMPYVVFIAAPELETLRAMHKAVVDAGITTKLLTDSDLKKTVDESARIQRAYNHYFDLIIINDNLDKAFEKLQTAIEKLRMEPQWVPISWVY
UniProt P22033: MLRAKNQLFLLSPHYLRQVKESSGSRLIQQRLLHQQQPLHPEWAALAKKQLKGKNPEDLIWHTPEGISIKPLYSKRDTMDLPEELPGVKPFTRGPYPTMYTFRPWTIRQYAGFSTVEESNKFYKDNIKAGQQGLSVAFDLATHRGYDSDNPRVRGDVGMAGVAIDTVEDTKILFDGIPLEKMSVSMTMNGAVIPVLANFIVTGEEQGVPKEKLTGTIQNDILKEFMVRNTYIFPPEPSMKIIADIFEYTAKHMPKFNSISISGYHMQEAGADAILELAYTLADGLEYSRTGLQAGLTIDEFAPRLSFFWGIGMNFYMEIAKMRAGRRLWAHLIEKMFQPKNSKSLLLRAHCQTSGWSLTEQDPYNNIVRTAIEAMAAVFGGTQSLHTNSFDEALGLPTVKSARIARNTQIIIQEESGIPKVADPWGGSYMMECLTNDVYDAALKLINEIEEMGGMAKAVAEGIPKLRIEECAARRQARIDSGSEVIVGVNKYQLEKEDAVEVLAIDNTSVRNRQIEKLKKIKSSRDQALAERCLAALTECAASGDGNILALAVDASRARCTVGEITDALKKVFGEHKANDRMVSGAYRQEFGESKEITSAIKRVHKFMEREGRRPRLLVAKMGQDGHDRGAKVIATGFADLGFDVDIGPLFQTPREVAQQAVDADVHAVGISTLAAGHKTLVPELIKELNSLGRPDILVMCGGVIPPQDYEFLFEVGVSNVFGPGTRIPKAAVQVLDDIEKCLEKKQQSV
UniProt Q9NZB8: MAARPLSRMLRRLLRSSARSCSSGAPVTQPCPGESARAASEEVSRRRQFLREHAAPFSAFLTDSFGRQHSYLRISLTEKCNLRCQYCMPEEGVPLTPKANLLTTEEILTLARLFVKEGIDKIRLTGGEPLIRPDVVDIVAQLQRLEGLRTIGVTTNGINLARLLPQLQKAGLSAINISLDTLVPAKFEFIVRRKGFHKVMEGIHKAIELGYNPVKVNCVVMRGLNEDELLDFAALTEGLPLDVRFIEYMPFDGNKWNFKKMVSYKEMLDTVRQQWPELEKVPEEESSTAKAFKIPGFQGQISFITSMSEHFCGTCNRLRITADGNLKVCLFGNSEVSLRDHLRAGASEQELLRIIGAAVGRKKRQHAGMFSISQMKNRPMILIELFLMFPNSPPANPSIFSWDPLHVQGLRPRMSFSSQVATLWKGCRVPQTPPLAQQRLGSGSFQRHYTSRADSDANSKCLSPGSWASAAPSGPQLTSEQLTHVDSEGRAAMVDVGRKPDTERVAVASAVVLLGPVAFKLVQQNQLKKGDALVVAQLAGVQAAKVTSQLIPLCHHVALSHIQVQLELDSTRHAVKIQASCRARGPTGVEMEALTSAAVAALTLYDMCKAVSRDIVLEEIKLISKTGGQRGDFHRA
UniProt Q9UBU8, whole entry, looked up: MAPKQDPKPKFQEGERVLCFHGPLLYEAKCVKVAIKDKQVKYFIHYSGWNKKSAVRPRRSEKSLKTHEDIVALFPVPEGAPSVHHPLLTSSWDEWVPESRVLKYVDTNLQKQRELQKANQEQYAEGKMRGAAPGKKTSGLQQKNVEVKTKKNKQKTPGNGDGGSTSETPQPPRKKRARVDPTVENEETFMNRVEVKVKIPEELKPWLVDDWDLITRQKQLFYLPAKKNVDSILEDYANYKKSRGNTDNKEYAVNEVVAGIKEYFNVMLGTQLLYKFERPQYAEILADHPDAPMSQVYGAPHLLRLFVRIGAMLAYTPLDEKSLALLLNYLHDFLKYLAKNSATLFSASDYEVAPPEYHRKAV
UniProt Q9H3L0: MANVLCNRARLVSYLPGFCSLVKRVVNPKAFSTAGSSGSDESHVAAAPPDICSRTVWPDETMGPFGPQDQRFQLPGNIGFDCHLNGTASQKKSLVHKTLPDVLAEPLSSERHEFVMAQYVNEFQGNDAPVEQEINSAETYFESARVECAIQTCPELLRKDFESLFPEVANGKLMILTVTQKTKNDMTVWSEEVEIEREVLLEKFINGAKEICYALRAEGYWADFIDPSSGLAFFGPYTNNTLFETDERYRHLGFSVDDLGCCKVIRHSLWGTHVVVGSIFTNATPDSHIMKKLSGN
UniProt O95297: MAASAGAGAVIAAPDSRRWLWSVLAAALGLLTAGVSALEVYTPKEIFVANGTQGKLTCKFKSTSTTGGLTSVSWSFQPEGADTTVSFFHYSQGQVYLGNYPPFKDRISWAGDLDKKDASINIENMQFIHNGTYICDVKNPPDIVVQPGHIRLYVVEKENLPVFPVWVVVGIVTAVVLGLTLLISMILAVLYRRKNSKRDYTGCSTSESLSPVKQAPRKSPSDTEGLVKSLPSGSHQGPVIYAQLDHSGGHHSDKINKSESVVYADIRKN
UniProt Q8TAP9: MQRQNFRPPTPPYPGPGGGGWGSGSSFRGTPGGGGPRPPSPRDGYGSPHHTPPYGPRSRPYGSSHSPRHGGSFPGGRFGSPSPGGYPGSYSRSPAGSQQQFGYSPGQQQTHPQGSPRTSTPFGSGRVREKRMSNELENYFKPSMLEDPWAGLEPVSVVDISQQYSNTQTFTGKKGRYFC
UniProt Q96EY8: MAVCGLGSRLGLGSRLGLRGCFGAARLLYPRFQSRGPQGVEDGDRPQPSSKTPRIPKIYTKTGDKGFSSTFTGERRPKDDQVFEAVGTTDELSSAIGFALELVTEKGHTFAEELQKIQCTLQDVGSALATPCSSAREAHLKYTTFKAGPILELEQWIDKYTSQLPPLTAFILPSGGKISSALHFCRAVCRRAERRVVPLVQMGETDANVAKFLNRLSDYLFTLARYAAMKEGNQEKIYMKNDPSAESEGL
UniProt Q7L1V2: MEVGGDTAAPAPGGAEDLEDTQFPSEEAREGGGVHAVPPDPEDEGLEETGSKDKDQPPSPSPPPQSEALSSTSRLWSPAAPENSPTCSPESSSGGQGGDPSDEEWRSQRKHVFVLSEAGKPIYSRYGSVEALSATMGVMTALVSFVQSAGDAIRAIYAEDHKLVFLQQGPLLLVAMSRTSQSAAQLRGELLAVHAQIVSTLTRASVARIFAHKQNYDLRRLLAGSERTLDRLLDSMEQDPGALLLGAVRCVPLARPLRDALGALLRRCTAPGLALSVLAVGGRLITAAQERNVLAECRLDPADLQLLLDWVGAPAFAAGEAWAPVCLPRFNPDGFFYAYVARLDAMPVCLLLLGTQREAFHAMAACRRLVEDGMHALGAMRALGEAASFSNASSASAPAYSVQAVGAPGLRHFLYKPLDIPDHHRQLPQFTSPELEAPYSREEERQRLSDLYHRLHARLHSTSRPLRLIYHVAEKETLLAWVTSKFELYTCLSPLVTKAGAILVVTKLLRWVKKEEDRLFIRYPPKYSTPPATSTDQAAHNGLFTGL
UniProt P10620: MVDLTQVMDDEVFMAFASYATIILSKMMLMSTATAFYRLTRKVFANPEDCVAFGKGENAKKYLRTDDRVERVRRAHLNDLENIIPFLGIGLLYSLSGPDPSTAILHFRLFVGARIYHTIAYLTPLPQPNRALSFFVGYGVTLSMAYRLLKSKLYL
UniProt Q15773: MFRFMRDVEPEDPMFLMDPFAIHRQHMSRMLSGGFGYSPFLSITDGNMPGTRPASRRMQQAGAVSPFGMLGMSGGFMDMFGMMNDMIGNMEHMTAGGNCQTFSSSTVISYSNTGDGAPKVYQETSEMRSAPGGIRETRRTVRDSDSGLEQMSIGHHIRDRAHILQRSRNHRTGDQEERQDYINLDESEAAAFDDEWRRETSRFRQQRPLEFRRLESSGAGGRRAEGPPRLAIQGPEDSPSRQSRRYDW

Compound: C1=CC=C(C=C1)C2=NC(=C(N2)C3=CC=NC=C3)C4=CC(=C(C=C4)Cl)O
Experiment: log2 fold change, soluble protein after heating vs DMSO (PISA); higher = thermal stabilisation; K562 lysate, 10 uM; active = over 0.2 and 3.5 SD of the protein, either way, in both replicates (recomputed)
Summary of the method: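 To prepare the extract, K562 pellets were dounce-homogenised in PBS pH 7.4 with 1 mM MgCl2, giving crude material at 1 mg/mL protein. This was treated with 10 μM compound for 30 min, then heated in aliquots for 3 min over 48°C-58°C before pooling and addition of NP-40 to 0.5% at 4°C. Centrifugation at 21,000xg for 90 min left soluble protein in the supernatant, which TMTpro 16plex LC-MS/MS quantified with equalised channel sums. Results are log-two fold changes in thermal stability compared with solvent controls, from duplicates.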

log2 fold change, inactive:
MOB1B isoform 2 (UniProt Q7L9L4) 0.013
MINK1 (UniProt Q8N4C8) -0.141
MKRN2 (UniProt Q9H000) 0.103
MIF (UniProt P14174) -0.009
MOGS (UniProt Q13724) -0.033
MICOS10 (UniProt Q5TGZ0) 0.08
MICB, A0A140T979 0.034
MMTAG2 (UniProt Q9BU76) 0
MPST isoform 2 (UniProt P25325) -0.028
MRPL14 (UniProt Q6P1L8) 0.075
MRPL23 (UniProt Q16540) 0.015
MGME1 (UniProt Q9BQP7) -0.007
MRM3 (UniProt Q9HC36) 0.024
MLXIP (UniProt Q9HAP2) 0.04
MPP6 (UniProt Q9NZW5) -0.004
MMUT (UniProt P22033) -0.037
MKLN1 (UniProt Q9UL63) 0.012
MPHOSPH10 (UniProt O00566) 0.002
MOCS1 isoform 8 (UniProt Q9NZB8) 0.026
MOB2 isoform 3 (UniProt Q70IA6) 0.057
MORF4L1 isoform 2 (UniProt Q9UBU8) -0.005
MINPP1 (UniProt Q9UNW1) 0.003
MNX1 (UniProt P50219) -0.041
MLLT1 (UniProt Q03111) 0.015
MRPL19 (UniProt P49406) -0.032
MPRIP isoform 2 (UniProt Q6WCQ1) 0.008
MOCS3 (UniProt O95396) -0.003
MICAL3 (UniProt Q7RTP6) -0.013
MOB3A (UniProt Q96BX8) 0.054
MMADHC (UniProt Q9H3L0) 0.004
MPZL1 (UniProt O95297) 0.017
MIS12 (UniProt Q9H081) -0.011
MPLKIP (UniProt Q8TAP9) -0.096
MKRN1 (UniProt Q9UHC7) 0.034
MMAB (UniProt Q96EY8) 0.011
MON1B (UniProt Q7L1V2) -0.015
MGST1 (UniProt P10620) -0.031
MLF2 (UniProt Q15773) -0.028

Quoted from above for reference:
log2 fold change, inactive:
MMAB (UniProt Q96EY8) 0.011
MON1B (UniProt Q7L1V2) -0.015
